{"sequences": {"note": "By UniProt entry, the sequences of proteins in these tests, tags left out.", "UniProt P18669": "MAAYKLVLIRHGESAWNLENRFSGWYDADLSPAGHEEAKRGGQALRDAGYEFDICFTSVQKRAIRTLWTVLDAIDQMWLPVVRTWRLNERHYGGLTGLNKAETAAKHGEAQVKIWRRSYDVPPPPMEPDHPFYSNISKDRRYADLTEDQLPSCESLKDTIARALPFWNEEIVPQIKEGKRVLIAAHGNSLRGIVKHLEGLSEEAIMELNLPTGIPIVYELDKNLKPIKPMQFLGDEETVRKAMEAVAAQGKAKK", "UniProt Q13574": "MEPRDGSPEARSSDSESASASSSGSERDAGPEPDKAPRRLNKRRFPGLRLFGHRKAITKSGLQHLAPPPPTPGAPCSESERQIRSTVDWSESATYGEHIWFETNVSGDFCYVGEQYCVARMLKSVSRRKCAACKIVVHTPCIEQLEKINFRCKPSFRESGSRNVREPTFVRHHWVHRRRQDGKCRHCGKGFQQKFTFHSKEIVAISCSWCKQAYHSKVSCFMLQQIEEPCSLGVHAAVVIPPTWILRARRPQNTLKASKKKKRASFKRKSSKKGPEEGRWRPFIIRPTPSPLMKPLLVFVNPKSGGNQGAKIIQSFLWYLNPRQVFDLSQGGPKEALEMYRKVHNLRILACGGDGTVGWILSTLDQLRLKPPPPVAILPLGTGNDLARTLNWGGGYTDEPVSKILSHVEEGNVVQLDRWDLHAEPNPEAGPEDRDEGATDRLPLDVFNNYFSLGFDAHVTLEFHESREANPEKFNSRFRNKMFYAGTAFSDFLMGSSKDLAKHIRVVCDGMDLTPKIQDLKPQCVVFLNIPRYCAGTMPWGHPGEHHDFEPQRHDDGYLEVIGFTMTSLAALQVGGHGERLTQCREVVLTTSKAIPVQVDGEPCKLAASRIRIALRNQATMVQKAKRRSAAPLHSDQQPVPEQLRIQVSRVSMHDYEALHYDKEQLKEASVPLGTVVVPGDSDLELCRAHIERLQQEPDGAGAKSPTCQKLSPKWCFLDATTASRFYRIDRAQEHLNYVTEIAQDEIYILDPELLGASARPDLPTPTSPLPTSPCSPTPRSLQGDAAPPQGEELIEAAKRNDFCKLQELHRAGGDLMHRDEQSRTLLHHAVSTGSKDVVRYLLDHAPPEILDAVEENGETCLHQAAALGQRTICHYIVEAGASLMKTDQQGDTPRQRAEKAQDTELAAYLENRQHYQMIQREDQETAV", "UniProt P23743": "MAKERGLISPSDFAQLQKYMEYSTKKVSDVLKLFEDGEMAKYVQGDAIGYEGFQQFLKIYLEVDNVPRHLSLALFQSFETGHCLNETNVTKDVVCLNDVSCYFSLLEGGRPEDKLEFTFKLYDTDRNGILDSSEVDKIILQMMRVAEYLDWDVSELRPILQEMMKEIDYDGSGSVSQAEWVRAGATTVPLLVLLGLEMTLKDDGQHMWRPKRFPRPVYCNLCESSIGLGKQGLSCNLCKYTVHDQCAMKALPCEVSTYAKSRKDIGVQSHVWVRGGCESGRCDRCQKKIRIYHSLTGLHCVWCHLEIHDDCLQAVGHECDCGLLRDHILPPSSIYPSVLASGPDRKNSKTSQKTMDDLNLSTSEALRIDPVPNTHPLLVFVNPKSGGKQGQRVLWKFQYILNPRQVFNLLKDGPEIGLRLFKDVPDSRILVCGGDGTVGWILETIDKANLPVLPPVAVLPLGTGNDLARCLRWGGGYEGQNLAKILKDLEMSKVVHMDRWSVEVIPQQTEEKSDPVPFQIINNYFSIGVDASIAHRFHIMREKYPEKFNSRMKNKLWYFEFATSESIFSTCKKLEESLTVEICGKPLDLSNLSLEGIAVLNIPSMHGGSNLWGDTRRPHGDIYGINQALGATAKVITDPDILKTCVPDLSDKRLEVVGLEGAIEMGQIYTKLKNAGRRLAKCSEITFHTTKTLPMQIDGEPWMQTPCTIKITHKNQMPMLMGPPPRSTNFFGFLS"}, "source": "paper PMC12513065", "molecules": {"B1": {"name": "diacylglycerol kinase δ (DGKδ) (enzyme, UniProt Q16760 1-1214)", "chain": "MAAAAGAPPPGPPQPPPPPPPEESSDSEPEAEPGSPQKLIRKVSTSGQIRQKTIIKEGMLTKQNNSFQRSKRRYFKLRGRTLYYAKTAKSIIFDEVDLTDASVAESSTKNVNNSFTVITPCRKLILCADNRKEMEDWIAALKTVQNREHFEPTQYSMDHFSGMHNWYACSHARPTYCNVCREALSGVTSHGLSCEVCKFKAHKRCAVRATNNCKWTTLASIGKDIIEDADGIAMPHQWLEGNLPVSAKCTVCDKTCGSVLRLQDWRCLWCKAMVHTSCKESLLTKCPLGLCKVSVIPPTALNSIDSDGFWKASCPPSCTSPLLVFVNSKSGDNQGVKFLRRFKQLLNPAQVFDLMNGGPHLGLRLFQKFDTFRILVCGGDGSVGWVLSEIDSLNLHKQCQLGVLPLGTGNDLARVLGWGSACDDDTQLPQILEKLERASTKMLDRWSVMAYEAKLPRQASSSTVTEDFSEDSEVQQILFYEDSVAAHLSKILTSDQHSVVISSAKVLCETVKDFVARVGKAYEKTTESSEESEVMAKKCSVLKEKLDSLLKTLDDESQASSSLPNPPPTIAEEAEDGDGSGSICGSTGDRLVASACPARPQIFRPREQLMLRANSLKKAIRQIIEHTEKAVDEQNAQTQEQEGFVLGLSESEEKMDHRVCPPLSHSESFGVPKGRSQRKVSKSPCEKLISKGSLSLGSSASLPPQPGSRDGLPALNTKILYPNVRAGMSGSLPGGSVISRLLINADPFNSEPETLEYYTEKCVMNNYFGIGLDAKISLDFNNKRDEHPEKCRSRTKNMMWYGVLGTKELLHRTYKNLEQKVLLECDGRPIPLPSLQGIAVLNIPSYAGGTNFWGGTKEDDTFAAPSFDDKILEVVAVFGSMQMAVSRVIRLQHHRIAQCRTVKISILGDEGVPVQVDGEAWVQPPGYIRIVHKNRAQTLTRDRAFESTLKSWEDKQKCELPRPPSCSLHPEMLSEEEATQMDQFGQAAGVLIHSIREIAQSHRDMEQELAHAVNASSKSMDRVYGKPRTTEGLNCSFVLEMVNNFRALRSETELLLSGKMALQLDPPQKEQLGSALAEMDRQLRRLADTPWLCQSAEPGDEESVMLDLAKRSRSGKFRLVTKFKKEKNNKNKEAHSSLGAPVHLWGTEEVAAWLEHLSLCEYKDIFTRHDIRGSELLHLERRDLKDLGVTKVGHMKRILCGIKELSRSAPAVEA"}}, "note": "Results are given in words; binding and its absence hold for the method and conditions named. In cells and extracts the contact can be indirect. Some results given as binding are weak or reduced against the parent protein; the word gives no strength.", "data": [{"molecular_target": "6 × His-tagged phosphoglycerate mutase 1 (PGAM1) (human) (UniProt P18669)", "assay": "pull-down; about 50 μg purified 6 × His-PGAM1 held on Ni-NTA agarose beads, incubated with 300 μg HEK293T cell lysate (Pierce IP Lysis Buffer) for 2 h at 4 °C; washed five times with 20 mM Tris-HCl pH 7.5, 300 mM NaCl, 0.1 % Tween-20; eluates blotted for endogenous DGKα, δ, ζ; Ni-NTA beads without PGAM1 as control; only the target purified", "values": [{"molecule": "diacylglycerol kinase ζ (DGKζ) (from UniProt Q13574 1-928) (enzyme)", "binding": "binds"}, {"molecule": "diacylglycerol kinase α (DGKα) (from UniProt P23743 1-735) (enzyme)", "binding": "no binding"}, {"molecule": "B1", "binding": "binds"}]}]}
